Earlier results, collected in patent US20180311297A1, “PHARMACEUTICAL COMPOSITION FOR INCREASING CONTENT AND AVAILABILITY OF CYCLIC ADENOSINE MONOPHOSPHATE IN A BODY AND PREPARATION THEREOF” (priority 2012, published 2018).
Some of these results come from one statement about several compounds together. At least one compound was matched to its structure with a doubt left. Some compounds share one range, which may span the group rather than tell each member.

System: depression patients
Details: STAR*D study, over 2800 depression patients; cited from earlier work

| Compound | time required on average to relieve the symptoms of depression |
| --- | --- |
| CC(NC(C)(C)C)C(=O)c1cccc(Cl)c1.Cl (centres unmarked) [Wellbutrin®] | 6-7 weeks |
| COc1ccc(C(CN(C)C)C2(O)CCCCC2)cc1.Cl (centres unmarked) [Effexor®] | 6-7 weeks |
